Results on 59 compounds are retold here after PubChem BioAssay AID2685 (National Center for Advancing Translational Sciences (NCATS), 2010).

This is one part of the list. Shown are side measurements of this screen, not its main read-out; they come without a call. The list favours compounds with an active or inconclusive main result. The note in brackets gives the kind of curve behind each potency; many fits are weak.

This experiment in a line: qHTS Assay for Lipid Storage Modulators in Drosophila S3 Cells.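 On cell number change: cells counted by Cell Tracker Red CMTPX staining in the red channel.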 The following applies: BODIPY lipid droplet fluorescence, 18-24 h; for cell number change: measured here: cell count max response, cells fed with added oleic acid. Summed up: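 Laser-scanning cytometry quantifies lipid droplet accumulation (500–530 nm total intensity; droplet/cell object ratio) in oleic acid-fed (400 uM added) Drosophila S3 cells treated with a concentration series. 20 uM Triacsin C defined 100% inhibition.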

Setting [1] is: measured here: cell number channel AC50, cells fed with added oleic acid.
[2] abbreviates: measured here: lipid fluorescence (Fed channel) AC50, cells fed with added oleic acid.

By AC50 is commonly meant the midpoint of the concentration-response curve, whichever way the signal moves. Read a high AC50 as weaker potency.

On to `Cc1cc(NC(=O)CSc2nc3c(sc4ccccc43)c(=O)n2CCCN2CCOCC2)n[nH]1`, for which the cell number change came out at 114%. Besides, the AC50 under setting [1] was 2.06 µM [rising, full curve]. Also, under setting [2], the AC50 is 0.461 µM [rising, full curve]. Take `O=C(CSc1nnc(CN2CCOCC2)n1-c1ccc(Cl)cc1)Nc1ccc2c(c1)OCO2`: the cell number change came to 38.7%. The AC50 under setting [1] is 0.013 µM [rising, full curve]. Besides, the AC50 under setting [2] was 1.16 µM [rising, partial curve]. As for `CCc1c(C(=O)NCc2ccccc2Cl)[nH]c(C)c1C(C)=O`, the cell number change was -9.62%.

For the compound `O=C(CC1C(=O)NCCN1Cc1ccccc1C(F)(F)F)NCCN1CCOCC1` (stereo unspecified), the cell number change was 11.6%. Moreover, under setting [2], the AC50 was 3.66 µM [rising, full curve, poor fit]. On to `CC(C)c1ccc(NC2CCCN(C(=O)c3cccnc3)C2)cc1` (stereo unspecified), for which the cell number change is 38.7%. Further, the AC50 under setting [1] is 11.6 µM [rising, partial curve]. Also, the AC50 under setting [2] is 16.4 µM [rising, partial curve]. Regarding `O=C(NC1CCCCC1)c1cccs1`, the cell number change stood at 12.8%. The AC50 under setting [2] is 29.1 µM [rising, single point]. With `CC(C)NC(=O)CSc1nnc2sc3ccccc3n12`, the AC50 is, setting by setting: under setting [1], 0.651 µM [falling, single point]; under setting [2], 0.651 µM [falling, single point].

On to `O=C(c1cccs1)N1CCc2ccccc21`, for which the cell number change was determined as 74.3%. As for `CC(C)CNC(CC(=O)Nc1cccc([N+](=O)[O-])c1)C(=O)O` (stereo unspecified), the cell number change amounted to 15%. The AC50 under setting [1] is 6.51 µM [falling, single point]. For the same compound, the AC50 under setting [2] is 1.3 µM [rising, partial curve].

In the case of `Cc1ccc(S(=O)(=O)C(C#N)c2nc3ccccc3nc2N2CCN(C)CC2)cc1C` (stereo unspecified), the cell number change is -15.2%. Also, the AC50 under setting [2] is 20.6 µM [falling, partial curve]. For the compound `Cc1ccc(C)c(CN2C(=O)COc3ccc(C(=O)c4ccccc4C(=O)O)cc32)c1`, the cell number change worked out at 17.1%. Moreover, the AC50 under setting [2] was 0.651 µM [falling, single point]. As to `C=CCc1ccccc1OCC(O)CNC1CCCC1` (stereo unspecified), the cell number change is -11.5%. In addition, the AC50 under setting [2] is 6.51 µM [rising, partial curve].

With `O=c1c(Cl)nc2cc(Cl)ccc2n1CCNc1ncc(C(F)(F)F)cc1Cl`, the cell number change is -0.197%. Moreover, the AC50 under setting [2] is 0.82 µM [falling, partial curve]. For `CC(C)(C)OC(=O)NC1CC2CCCC(C1)N2Cc1ccccc1` (stereo unspecified), the cell number change was determined as 2.91%. The half-maximal activity concentration (AC50) under setting [2] is 25.9 µM [rising, single point].

Turning to `CC1CCCCC1NC(=O)COC(=O)C12CC3CC(CC(Cl)(C3)C1)C2` (stereo unspecified), the cell number change was -9.29%. For the compound `CC1(C)Cc2ccccc2-c2nc(NCCCO)n(-c3ccccc3)c(=O)c21`, the cell number change worked out at 4.76%. Moreover, under setting [2], the AC50 is 9.2 µM [rising, partial curve, poor fit]. Regarding `COc1ccc(N(/N=C2\Sc3ccccc3C2=O)C(C)=O)cc1`, the AC50 reads like this: under setting [1], 0.116 µM [rising, full curve, poor fit]; under setting [2], 0.103 µM [rising, full curve, poor fit]. Take `C[C@H]1CN=C(N(C)C)N1CCCCc1ccccc1`: the cell number change stood at 18.5%. Also, the AC50 under setting [2] is 29.1 µM [rising, single point]. As for `CC(=O)N1C(c2ccccc2O)C[C@]2(C)CC(=O)NC12` (stereo partly specified), the cell number change was -3.38%. Further, the AC50 under setting [2] is 32.6 µM [falling, single point]. On to `CC(=O)Nc1ccc(Nc2nc(-c3sc(NC(C)=O)nc3C)cs2)cc1`, for which the AC50 under setting [2] is 16.4 µM [falling, single point].

In the case of `O=C(Nc1ccc(O)cc1C(=O)O)c1ccc2c(c1)C(=O)N(Cc1ccco1)C2=O`, the AC50 was 0.116 µM [falling, full curve, poor fit] under setting [1] and 4.61 µM [falling, single point] under setting [2]. With `CC(C)(C)c1cc2cccnc2n1Cc1cccc(F)c1`, the cell number change worked out at 11.5%. Besides, the AC50 under setting [1] is 2.59 µM [rising, partial curve, poor fit].

Turning to `COc1cc(C(=O)OCc2csc(CC(=O)Nc3ccccc3C)n2)ccc1OCC(C)C`, the cell number change is -36.9%. Moreover, the AC50 under setting [1] is 4.11 µM [falling, partial curve, poor fit]. For the same compound, under setting [2], the AC50 is 5.8 µM [falling, partial curve, poor fit]. Take `O=[N+]([O-])c1cccc(OCC(O)CN2CCN(S(=O)(=O)c3cc(Cl)ccc3Cl)CC2)c1` (stereo unspecified): under setting [2], the AC50 was 29.1 µM [falling, single point]. As to `CCC(OC(=O)C1=Cc2ccccc2OC1)C(=O)NCc1ccco1` (stereo unspecified), the cell number change came out at 5.4%. For the same compound, under setting [2], the AC50 was 0.146 µM [falling, full curve, poor fit]. As for `CC1(C)CC(=O)C=C(Nc2ccccc2O)C1`, the cell number change is -10.7%. Also, the AC50 under setting [1] is 2.59 µM [rising, single point]. Take `Cc1csc(NC(=O)C2CCCCN2S(=O)(=O)c2ccccc2)n1` (stereo unspecified): the concentration at half-maximal activity (AC50) under setting [1] is 0.116 µM [rising, single point] and the AC50 under setting [2] was 0.116 µM [rising, single point]. Consider `Cc1nn(C)cc1/C=N/NC(=O)C1(O)c2ccccc2-c2ccccc21`, for which the AC50 is 6.51 µM [rising, single point] under setting [1] and 4.11 µM [rising, single point] under setting [2]. For `COc1ccc(Cl)cc1NC(=O)c1nnn(CC(=O)Nc2cc(C)cc(C)c2)c1N`, the cell number change worked out at 64.5%. For the same compound, under setting [1], the AC50 is 29.1 µM [rising, single point]. For the same compound, the AC50 under setting [2] is 29.1 µM [rising, single point]. `CCOC(=O)C1=C(COC(=O)/C=C/c2ccccc2)NC(=O)NC1C` (stereo unspecified): the AC50 under setting [2] was 0.116 µM [rising, full curve, poor fit].

Turning to `CCOC(=O)c1cc2c(=O)n3ccccc3nc2n(C(C)C)c1=NC(=O)c1ccncc1`, the cell number change is -17.3%. Consider `CCC(C)Sc1nc2c([nH]c3ccccc32)c(=O)n1C` (stereo unspecified), for which the AC50 under setting [2] is 0.517 µM [rising, full curve].

Take `COc1ccc(N=c2ssnc2Cl)cc1`: the cell number change was -78%. Further, the AC50 under setting [1] is 20.6 µM [falling, partial curve]. Also, the half-maximal activity concentration (AC50) under setting [2] is 20.6 µM [falling, partial curve].

Turning to `Cn1c(SCC(=O)OCc2ccccc2)nnc1-c1ccco1`, the cell number change was -14.4%. For `COc1ccc2[nH]c(C(=O)N3CCCN(Cc4ccc(F)cc4)CC3)cc2c1`, the cell number change amounted to 17.3%. The AC50 under setting [2] was 3.66 µM [rising, partial curve]. With `O=C(CN1C(=O)c2ccccc2S1(=O)=O)NCc1cccs1`, the cell number change was 19.6%. Moreover, the AC50 under setting [2] is 0.58 µM [falling, full curve, poor fit].

Turning to `CC(C)NC(=O)CSCc1ccccc1Cl`, the cell number change was -17.7%. The AC50 under setting [2] was 11.6 µM [falling, partial curve]. Consider `Cc1ccc(-n2nc(C(=O)O)nc2-c2ccccc2)cc1`, for which the cell number change was determined as 7.61%.

For `Cc1ccc(NCC(=O)N=Nc2c(O)[nH]c3ccc([N+](=O)[O-])cc23)cc1`, the cell number change is -30.7%. In addition, the AC50 under setting [1] was 16.4 µM [falling, single point]. Moreover, under setting [2], the AC50 was 20.6 µM [falling, single point]. As for `COc1ccc(NC(=O)COC(=O)c2ccco2)c([N+](=O)[O-])c1`, the cell number change turned out to be 0.244%. On to `CN1C(=O)c2ccccc2C(C(=O)NCC2CCCO2)C1c1c[nH]c2ccccc12` (stereo unspecified), for which the cell number change is -2.61%. Besides, the AC50 under setting [2] is 3.66 µM [falling, partial curve].

As for `CC1CCCCC1NC(=O)NC(=O)COC(=O)C1=NN(c2ccccc2)C(=O)CC1` (stereo unspecified), the cell number change is -9.29%. Moreover, under setting [2], the half-maximal activity concentration (AC50) is 18.4 µM [rising, single point]. On to `Cc1[nH]c2ccc(C(=O)OC(C)C(=O)NCc3ccccc3)cc2c1C` (stereo unspecified), for which the cell number change was -0.668%. Also, the AC50 under setting [2] is 29.1 µM [falling, single point].

On to `COC(=O)c1cccc(-n2sc3ccccc3c2=O)c1`, for which the cell number change was -83.6%. In addition, the AC50 under setting [1] is 4.61 µM [falling, full curve]. Under setting [2], the AC50 is 4.61 µM [falling, single point].

As for `CCC(c1nnc(SCC(=O)Nc2ccc(S(N)(=O)=O)cc2)n1Cc1ccccc1)N(C)C` (stereo unspecified), the cell number change is -11.3%. For the same compound, the AC50 under setting [2] is 18.4 µM [falling, single point]. Consider `O=c1c(-c2ccc([N+](=O)[O-])cc2)coc2c(O)c(O)ccc12`, for which the cell number change was -12.2%. Under setting [2], the AC50 is 0.82 µM [falling, partial curve]. On to `COc1cc(CCC(=O)OCC(=O)Nc2ccc(F)c(F)c2F)cc(OC)c1OC`, for which the cell number change turned out to be 8.33%. Under setting [1], the AC50 was 0.461 µM [rising, full curve]. With `O=C(NCc1ccccn1)C1CC(c2ccc(F)cc2)=NO1` (stereo unspecified), the cell number change was -1.06%. As to `O=C(CN1CCN(Cc2ccc3c(c2)OCO3)CC1)Nc1ccc2c(c1)OCCO2`, the cell number change worked out at 9.6%. The concentration at half-maximal activity (AC50) under setting [2] was 6.51 µM [rising, partial curve]. Take `O=C(NCc1ccccc1)C1CCCN(C(=O)NCc2ccccc2)C1` (stereo unspecified): the cell number change came to 9.66%. Moreover, the AC50 under setting [2] was 3.26 µM [rising, full curve]. For the compound `Cc1csc(=O)n1CC(=O)OCC(=O)Nc1ccc(C(N)=O)cc1`, the cell number change is -11.4%. Turning to `COc1ccc(S(=O)(=O)NCc2csc(C)n2)cc1OC`, the cell number change is 13%. Regarding `CC(=O)N1CCN(C23CC4CC(CC(C4)C2)C3)CC1`, the cell number change came out at 9.07%. Under setting [2], the AC50 was 7.31 µM [rising, partial curve, poor fit].

On to `Cc1cc2oc(=O)c(CC(=O)NCCCN(C)C)c(C)c2c2occ(C(C)(C)C)c12`, for which the cell number change was -53.7%. The AC50 under setting [1] was 25.9 µM [falling, single point]. The AC50 under setting [2] was 29.1 µM [falling, single point]. As to `Cc1ccc(CN2CCS(=O)(=O)CC2)o1`, the cell number change was -48.5%. Further, the AC50 under setting [2] is 0.651 µM [rising, single point]. Regarding `CCOC(=O)CNC(=O)c1ccc2[nH]c3c(c2c1)CCCC3`, the cell number change was 14.6%. Under setting [1], the AC50 was 0.0461 µM [rising, full curve, poor fit]. The AC50 under setting [2] is 0.651 µM [rising, partial curve]. Consider `O=C(CCC(=O)c1ccc(F)cc1)OCc1nnc(-c2ccc([N+](=O)[O-])cc2)o1`, for which the cell number change is -3.58%. Moreover, the AC50 under setting [2] is 16.4 µM [falling, partial curve, poor fit]. As to `O=C(c1ccc(Cl)cc1)C(CN1CCCC1)c1ccccc1` (stereo unspecified), the cell number change was -50.1%. Also, under setting [1], the AC50 is 9.2 µM [falling, partial curve]. In addition, the AC50 under setting [2] was 23.1 µM [falling, single point]. For `O=C(CNC(=O)c1ccc(Br)o1)NNC(=O)c1n[nH]c(=O)c2ccccc12`, the cell number change is -6.95%. In addition, the AC50 under setting [1] is 6.51 µM [falling, single point].
